In doi:10.1101/383430 (bioRxiv, 2018):
No constants are given. Whether binding was seen depends on the method and setting. A result given as binding can be weak or reduced; the word gives no strength. Where a sequence is shown, tags or fusion partners need not be part of it. For part of these data: In cells and extracts the contact can be indirect.

Legend:
[1] = molecular target: T1, FAP45 (flagellar-associated protein 45) (Chlamydomonas (endogenous in axonemes)) (UniProt A8I9E8); assay: cross-linking
T1 sequence: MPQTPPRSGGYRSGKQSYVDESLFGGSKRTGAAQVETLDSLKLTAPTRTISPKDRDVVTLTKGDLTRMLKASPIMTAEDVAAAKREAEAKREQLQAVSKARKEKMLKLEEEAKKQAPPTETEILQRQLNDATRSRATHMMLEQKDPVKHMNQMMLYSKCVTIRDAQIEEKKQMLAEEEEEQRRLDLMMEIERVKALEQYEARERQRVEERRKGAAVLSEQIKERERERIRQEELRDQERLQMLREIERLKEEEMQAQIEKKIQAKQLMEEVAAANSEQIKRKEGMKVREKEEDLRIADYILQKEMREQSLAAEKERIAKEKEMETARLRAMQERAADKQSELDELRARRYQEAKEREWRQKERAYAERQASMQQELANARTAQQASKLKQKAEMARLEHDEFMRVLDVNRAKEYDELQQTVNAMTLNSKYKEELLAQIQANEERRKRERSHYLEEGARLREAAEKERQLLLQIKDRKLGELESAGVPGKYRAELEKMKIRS

[2] = molecular target: T1, FAP45 (flagellar-associated protein 45) (Chlamydomonas (endogenous in axonemes)); assay: cryo-electron tomography with subtomogram averaging
[3] = molecular target: tubulin (Chlamydomonas (endogenous in axonemes)); assay: as above

Molecule: tubulin (Chlamydomonas (endogenous in axonemes)) (complex)
- binding [1]: binds
- binding [2]: binds

B1: FAP52 (flagellar-associated protein 52) (natural protein, Chlamydomonas (endogenous in axonemes), UniProt A8ILK1 1-615, looked up)
chain: MAEPLVLNSVIGFGGAIENGLIAHPDGRTIIYPLGSTIVLRDRADPRSQEFLQGHSDKVSCLALSRSGRYLASGQITYMGFTADIIIWDLESKQLIHRMALHKVKVQALDFSCDERFLASLGGQDDNALVLWDVASGNAICGSPCNTNFTNCVKFFNNSPDKLITAGNFNMNVWTYDAGNNKLRPTDATLGTLKRVFKSVVVDANDEYAYCGTTTGDVLQIALERVLFKNTGPAKGNVQMGVTATCEVPTGDILVGGGDGSLQLLRKMPALAGTKVEGAITSIALADMNARGFTFFVGTAMCNIYKPATSRLKEELVQTAHNDKINGMAFPNEYSEVFATCGTGFIRLWHLTTCRELLRIAVPNLECFCIAFTTDGSAILSGWSDGKIRAFGPQSGKIIFTINDAHQKAVTAIASTADSSRILSGGEEGMVRVWRIGRTSQTLEASMKDHKGPVNCIRIKGSGDECVSASSDGSCILWDLHTFKRRTSLFANTFFKSVVYHPDESQLVTAGTDRKVTYWDAYDGNAIRIIDGSDLDEVNALAVDRDGEALVSGGGDKLVKLWGYDEGHCYFVGVAHSGAITAVGVTPDKQRIVSVGTEGGIFIWDYQRPQTLADI
- binding [3]: binds
